Test results taken from paper PMC7782499, “Progerinin, an optimized progerin-lamin A binding inhibitor, ameliorates premature senescence phenotypes of Hutchinson-Gilford progeria syndrome” (Communications Biology, 2021).
Several values for one entry are separate records, joined by “and”; a condition that tells them apart may be missing. Equal entries are not always repeated. This continues a long series; more values of the same kind are listed elsewhere.

Test system: Lmna G609G/+ mouse
Assay: Body weight of Lmna G609G/+ mice
Type: in vivo
Source text: Fig. 3 In vivo favorable effect of SLC-D011. A Gross morphology of Lmna^G609G/G609G mice (10 weeks old) was ameliorated after injection with SLC-D011. At the same age, the experimental group (D011) of mice were larger than vehicle-injected control (Con) subjects regardless of gender. B, C SLC-D011 increases body weight B and extends life span C of Lmna^G609G/G609G progeria model mouse (Con: n = 8; SLC-D011: n = 8). Compared with 14.8 weeks of average (ave) life span with maximum (max) life span of 15.5 weeks, 20 mg/kg of intraperitoneal (i.p) injection (twice a week) of SLC-D011 could extend the life span upto 19 weeks (max = 21 weeks). Lmna^G609G/G609G mice were injected with SLC-D011 from age of 5-week old, *p < 0.05. D Gross morphology of SLC-D011 injected Lmna^G609G/+ mouse. […] E SLC-D011 increases body weights of Lmna^G609G/+ mice (Con: n = 10; SLC-D011: n = 11), *p < 0.05. F Favorable effect of SLC-D011 on life span of Lmna^G609G/+ mice. Compared with vehicle-injected control group (ave = 46.7 weeks and max = 48 weeks), SLC-D011 treatment obviously extended the average life span to 63 weeks (max = 64 weeks). The injection was started from 32 weeks old, **p < 0.001. “Con” means vehicle (a solvent composed of DMSO and PBS)-injected mouse group. TEXT PRINTED IN THE PICTURE: (C) D011: Kaplan-Meier survival curve in Lmna^G609G/G609G: Ave=19; Kaplan-Meier survival curve in Lmna^G609G/G609G: Max=21 | (F) D011: Kaplan-Meier survival curve in Lmna^G609G/+: Ave=63; Kaplan-Meier survival curve in Lmna^G609G/+: Max=64 DOUBTS OF THE COPYIST ABOUT THIS PICTURE: Panels C and F: the Ave/Max labels are not printed with a group name. They are assigned to D011 (solid curve) or Con (dashed curve) only by their position beside the curves. / Panel C Ave=14.8, Max=15.5 and panel F Ave=46.7, Max=48 stand beside the dashed Con curve. They are left out because Con is the control group, not a substance. / No unit is printed with the Ave/Max values. Only the axis reads Age (weeks).
Animal experiments were performed in a facility certified by the Association for Assessment and Accreditation of Laboratory Animal Care in compliance with animal policies approved by Pusan National University. The mouse work was performed under the study protocol PNU-2019-2181, as approved by the Institutional Animal Care and Use Committee. Lmna^G609G/609G mice were generated by timed mating of heterozygous Lmna^G609G/+ provided by Carlos López-Otín (Universidad de Oviedo, Asturias, Oviedo, Spain). SLC-D011 was mixed with dimethyl sulfoxide (DMSO) and phosphate-buffered saline (PBS). It was then intraperitoneally injected into mice (20 mg/kg twice per week from 5-week-old). SLC-D011 and lonafarnib were orally administrated to mice daily at a concentration of 10 mg/ml in monoolein-based solution. Lonafarnib was generously provided by Merck, the Progeria Research Foundation (PRF) and the PRF Lonafarnib Pre-clinical Drug Supply Program. Control mice were treated with monoolein-based solution alone in the same way. Lmna^G609G/609G mice were treated with clear chemical solution throughout the life span, starting from 5 weeks of age. Lmna^G609G/+ mice were treated via intraperitoneal and oral administrations, starting from 32 weeks of age.
Fig. S10. Or al administration of SLC-D011 suppresses premature aging features of LmnaG609G/+ mi c e . A.
Gross morphology of SLC-D011 treated Lmna G609G/+ mice at 36 weeks old. B. Oral administration of SLC-
D011 increases body weight s of LmnaG609G/+ mi c e (untreated: n=11; SLC-D011: n=12), * p<0.05. C. […]
intensity of H3K9me3 levels in lung, liver, and kidney tissues of age-matched Lmn a +/+ mouse, untreated
LamnG609G/+ mouse and two progerinin- treated LmnaG609G/+ mice (n = 2 independent experiments; one
Student’s t -test), **p < 0.001,*p< 0.05, N.S: not significant .AU, arbitrary units.
Fig. S12. […] A. SLC-D011, compar ed to lonafarnib, reduces […]

`CC1(C)Oc2cc3oc(=O)ccc3cc2C[C@@H]1OC/C=C/c1ccccc1` [SLC-D011] was tested, and the “Lmna G609G/+ body weight” value (oral administration, week 56, Ave) was 0.7247, the “Lmna G609G/+ body weight” value (oral administration, week 56, individual mouse) was 0.7273 and 0.6957 and 0.7368 and 0.7391 and the “Lmna G609G/+ body weight” value (oral administration, week 56, individual mouse, relative body weight) was 0.7273 and 0.6957 and 0.7368 and 0.7391. For the same molecule, the “Lmna G609G/+ body weight” value (oral administration, week 57, Ave) was 0.7124, the “Lmna G609G/+ body weight” value (oral administration, week 57, individual mouse) was 0.6818 and 0.6957 and 0.7368 and 0.7391 and 0.7273 and 0.6364 and the “Lmna G609G/+ body weight” value (oral administration, week 58, Ave) was 0.7038. The “Lmna G609G/+ body weight” value (oral administration, week 58, individual mouse) was 0.6818 and 0.6522 and 0.7368 and 0.7391 and 0.7273, the “Lmna G609G/+ body weight” value (oral administration, week 58, individual mouse, relative body weight) was 0.6818 and 0.6522 and 0.7368 and 0.7391 and 0.7273 and the “Lmna G609G/+ body weight” value (oral administration, week 59, Ave) was 0.6842. The “Lmna G609G/+ body weight” value (oral administration, week 59, individual mouse) was 0.6818 and 0.6522 and 0.7368 and 0.6957 and 0.7273 and 0.5909, the “Lmna G609G/+ body weight” value (oral administration, week 60, Ave) was 0.6602 and the “Lmna G609G/+ body weight” value (oral administration, week 60, individual mouse) was 0.6364 and 0.6522 and 0.6842 and 0.6957 and 0.5652. The “Lmna G609G/+ body weight” value (oral administration, week 60, individual mouse, relative body weight) was 0.6364 and 0.6522 and 0.6842 and 0.6957 and 0.5652, the “Lmna G609G/+ body weight” value (oral administration, week 61, Ave) was 0.653 and the “Lmna G609G/+ body weight” value (oral administration, week 61, individual mouse) was 0.6364 and 0.6522 and 0.6842 and 0.5652. For the same molecule, the “Lmna G609G/+ body weight” value (oral administration, week 62, Ave) was 0.5992, the “Lmna G609G/+ body weight” value (oral administration, week 62, individual mouse) was 0.5909 and 0.5652 and 0.6842 and the “Lmna G609G/+ body weight” value (oral administration, week 62, individual mouse, relative body weight) was 0.5909 and 0.5652 and 0.6842. The “Lmna G609G/+ body weight” value (oral administration, week 63, Ave) was 0.5294, the “Lmna G609G/+ body weight” value (oral administration, week 63, individual mouse) was 0.5455 and 0.5652 and 0.6316 and 0 and 0.5217 and the “Lmna G609G/+ body weight” value (oral administration, week 64, Ave) was 0.3905. For the same molecule, the “Lmna G609G/+ body weight” value (oral administration, week 64, individual mouse) was 0.4545 and 0.5217 and 0.5263 and 0.5652 and 0, the “Lmna G609G/+ body weight” value (oral administration, week 64, individual mouse, relative body weight) was 0.4545 and 0.5217 and 0.5263 and 0.5652 and 0 and the “Lmna G609G/+ body weight” value (oral administration, week 65, Ave) was 0.2851. The “Lmna G609G/+ body weight” value (oral administration, week 65, individual mouse) was 0 and 0.4737 and 0.4783 and 0.5652, the “Lmna G609G/+ body weight” value (oral administration, week 66, Ave) was 0 and the “Lmna G609G/+ body weight” value (oral administration, week 66, individual mouse) was 0. The “Lmna G609G/+ body weight” value (oral administration, week 66, individual mouse, relative body weight) was 0, the “Lmna G609G/+ body weight” value (week 35, IP injection with SLC-D011, individual mouse, ratio to week 32) was 1.037 and 0.9583 and the “Lmna G609G/+ body weight” value (week 37, IP injection with SLC-D011, individual mouse, ratio to week 32) was 0.9565. For the same molecule, the “Lmna G609G/+ body weight” value (week 38, IP injection with SLC-D011, individual mouse, ratio to week 32) was 0.9615, the “Lmna G609G/+ body weight” value (week 39, IP injection with SLC-D011, individual mouse, ratio to week 32) was 1 and the “Lmna G609G/+ body weight” value (week 42, IP injection with SLC-D011, individual mouse, ratio to week 32) was 0.875. The “Lmna G609G/+ body weight” value (week 48, IP injection with SLC-D011, individual mouse, ratio to week 32) was 0.7917 and 0.875, the “Lmna G609G/+ body weight” value (week 49, IP injection with SLC-D011, individual mouse, ratio to week 32) was 0.7917 and 0.875 and the “Lmna G609G/+ body weight” value (week 50, IP injection with SLC-D011, individual mouse, ratio to week 32) was 0.875. The “Lmna G609G/+ body weight” value (week 51, IP injection with SLC-D011, individual mouse, ratio to week 32) was 0.875, the “Lmna G609G/+ body weight” value (week 52, IP injection with SLC-D011, individual mouse, ratio to week 32) was 0.7778 and 0.7407 and 0.7917 and the “Lmna G609G/+ body weight” value (week 53, IP injection with SLC-D011, individual mouse, ratio to week 32) was 0.7407 and 0.7778. For the same molecule, the “Lmna G609G/+ body weight” value (week 54, IP injection with SLC-D011, individual mouse, ratio to week 32) was 0.7407 and 0.7778 and 0.8462, the “Lmna G609G/+ body weight” value (week 55, IP injection with SLC-D011, individual mouse, ratio to week 32) was 0.7407 and 0.7778 and the “Lmna G609G/+ body weight” value (week 56, IP injection with SLC-D011, individual mouse, ratio to week 32) was 0.7407 and 0.7778. For the same molecule, the “Lmna G609G/+ body weight” value (week 57, IP injection with SLC-D011, individual mouse, ratio to week 32) was 0.7407, the “Lmna G609G/+ body weight” value (week 58, IP injection with SLC-D011, individual mouse, ratio to week 32) was 0.7407 and 0.7917 and 0.7037 and 0.7391 and 0.75 and the “Lmna G609G/+ body weight” value (week 59, IP injection with SLC-D011, individual mouse, ratio to week 32) was 0.7778 and 0.6957 and 0.7917 and 0.7692 and 0.7037 and 0.75. For the same molecule, the “Lmna G609G/+ body weight” value (week 60, IP injection with SLC-D011, individual mouse, ratio to week 32) was 0.6667 and 0.6087 and 0.7083 and 0.5926 and 0.75, the “Lmna G609G/+ body weight” value (week 61, IP injection with SLC-D011, individual mouse, ratio to week 32) was 0.6667 and 0.7083 and 0 and 0.6923 and the “Lmna G609G/+ body weight” value (week 62, IP injection with SLC-D011, individual mouse, ratio to week 32) was 0.6667 and 0.6087. The “Lmna G609G/+ body weight” value (week 63, IP injection with SLC-D011, individual mouse, ratio to week 32) was 0.5926 and 0 and 0.5833 and the “Lmna G609G/+ body weight” value (week 64, IP injection with SLC-D011, individual mouse, ratio to week 32) was 0.
